# Taken from: PubChem BioAssay AID686938 (Drosophila RNAi Screening Center, 2013)
# Screen: 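Fly genes required for calcium entry once internal stores are emptied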 (primary screen)
# System: Drosophila S2R+ cells
# Reagents: long dsRNA against Drosophila genes, about 0.25 µg dsRNA per well, roughly 10,000 cells
# Timing: 5 days of knock-down before the calcium assay
# Treatment: thapsigargin (SERCA pump blocker) to empty calcium stores; entry signal taken 4 min after adding it
# Detection: 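Per-well fluo-4 fluorescence in two replicates, unnormalised, measured in resting cells and 4 min after store depletion by the SERCA blocker thapsigargin; ratio of the two present in few wells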
# Direction: calcium entry signal: higher = stronger calcium signal after store depletion; resting calcium signal: higher = higher resting calcium signal
# Call rule: 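Hit if the duplicate-averaged plate z-score for entry over resting signal is under −3; wells with weak total dye signal (Fmax z < −2) or more than 5 off-targets removed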
# Meaning of the calls: active = strongly reduced calcium entry; inactive = no strong reduction
# The deposit covers about 23,000 reagents; this is an unselected part of those with a known target gene and a result. Of all reagents, 75 (0.33%) are marked active. 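Raw plate signals without normalisation; calls rest on plate z-scores that were not deposited; ratio present for only 364 wells.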 Reagent sequences are not shown. Not stated in the record: the dose of the treatment.
gene knocked down,dsRNA,"calcium entry signal, replicate 1 (fluorescence units)","calcium entry signal, replicate 2 (fluorescence units)","resting calcium signal, replicate 1 (fluorescence units)","resting calcium signal, replicate 2 (fluorescence units)",Call
CG42342 (GeneID 7354466),DRSC13165,3.37e7,2.55e7,1.85e7,1.28e7,inactive
CG42342 (GeneID 7354466),DRSC14378,4.84e7,1.92e7,2.41e7,1.14e7,inactive
CG42342 (GeneID 7354466),DRSC15010,2.33e7,3.50e6,1.21e7,5.71e7,inactive
CG42342 (GeneID 7354466),DRSC15011,2.38e7,3.80e7,1.23e7,4.36e7,inactive
CG42342 (GeneID 7354466),DRSC15012,2.13e7,2.99e7,1.10e7,4.99e7,inactive
CG42342 (GeneID 7354466),DRSC21791,4.73e7,3.75e7,2.57e7,1.78e7,inactive
CG42342 (GeneID 7354466),DRSC22861,1.63e7,3.06e7,9.07e6,1.46e7,inactive
CG42342 (GeneID 7354466),DRSC23112,5.98e7,3.36e7,2.55e7,1.45e7,inactive
CG4995 (GeneID 34390),DRSC02801,5.04e7,,2.56e7,,inactive
fax (GeneID 39826),DRSC11345,3.46e7,3.91e7,1.68e7,2.55e7,inactive
CG10257 (GeneID 36671),DRSC05985,3.29e7,4.87e7,1.70e7,2.22e7,inactive
BigH1 (GeneID 41780),DRSC15491,2.87e7,3.86e7,1.31e7,1.73e7,inactive
PK1-R (GeneID 41713),DRSC16577,3.38e7,4.84e7,1.65e7,6.53e7,inactive
ldd (GeneID 318066),DRSC20558,3.41e7,3.62e7,1.93e7,1.88e7,inactive
ldd (GeneID 318066),DRSC22696,4.08e7,3.50e7,2.00e7,1.58e7,inactive

Continued, starting with the last 3 of the part before.
gene knocked down,dsRNA,"calcium entry signal, replicate 1 (fluorescence units)","calcium entry signal, replicate 2 (fluorescence units)","resting calcium signal, replicate 1 (fluorescence units)","resting calcium signal, replicate 2 (fluorescence units)",Call
PK1-R (GeneID 41713),DRSC16577,3.38e7,4.84e7,1.65e7,6.53e7,inactive
ldd (GeneID 318066),DRSC20558,3.41e7,3.62e7,1.93e7,1.88e7,inactive
ldd (GeneID 318066),DRSC22696,4.08e7,3.50e7,2.00e7,1.58e7,inactive
CG7968 (GeneID 34802),DRSC01903,4.63e7,3.03e7,2.15e7,1.49e7,inactive
CG9062 (GeneID 36199),DRSC07327,2.48e7,3.78e7,1.32e7,1.69e7,inactive
CG2321 (GeneID 43471),DRSC15439,4.47e7,4.78e7,1.98e7,2.21e7,inactive
Spn38F (GeneID 49806),DRSC03616,5.51e7,5.87e7,2.86e7,2.46e7,inactive
ppk15 (GeneID 43188),DRSC14733,2.30e7,4.47e7,1.43e7,2.23e7,inactive
CG7227 (GeneID 34088),DRSC03032,4.58e7,,2.34e7,,inactive
CG33476 (GeneID 2768727),DRSC22888,5.06e7,3.56e7,2.97e7,1.67e7,inactive
RhoGAP54D (GeneID 36996),DRSC06990,5.08e7,6.66e7,2.18e7,3.08e7,inactive
CG9368 (GeneID 40135),DRSC11067,2.72e7,3.45e7,1.20e7,2.26e7,inactive
